Test results reported in paper PMC12508156, “Non-canonical dihydrolipoyl transacetylase promotes chemotherapy resistance via mitochondrial tetrahydrofolate signaling” (Nature Communications, 2025).
These are yes or no findings as the source states them, for the method shown. Binding seen in cells or lysates may run through a third protein. A yes stands for co-enrichment or nearness to the bait. Other partners may have been found.

The chains behind the UniProt entries cited, without tags or fusion partners. Residues count along the entry.
UniProt O00411, residues 42-1230: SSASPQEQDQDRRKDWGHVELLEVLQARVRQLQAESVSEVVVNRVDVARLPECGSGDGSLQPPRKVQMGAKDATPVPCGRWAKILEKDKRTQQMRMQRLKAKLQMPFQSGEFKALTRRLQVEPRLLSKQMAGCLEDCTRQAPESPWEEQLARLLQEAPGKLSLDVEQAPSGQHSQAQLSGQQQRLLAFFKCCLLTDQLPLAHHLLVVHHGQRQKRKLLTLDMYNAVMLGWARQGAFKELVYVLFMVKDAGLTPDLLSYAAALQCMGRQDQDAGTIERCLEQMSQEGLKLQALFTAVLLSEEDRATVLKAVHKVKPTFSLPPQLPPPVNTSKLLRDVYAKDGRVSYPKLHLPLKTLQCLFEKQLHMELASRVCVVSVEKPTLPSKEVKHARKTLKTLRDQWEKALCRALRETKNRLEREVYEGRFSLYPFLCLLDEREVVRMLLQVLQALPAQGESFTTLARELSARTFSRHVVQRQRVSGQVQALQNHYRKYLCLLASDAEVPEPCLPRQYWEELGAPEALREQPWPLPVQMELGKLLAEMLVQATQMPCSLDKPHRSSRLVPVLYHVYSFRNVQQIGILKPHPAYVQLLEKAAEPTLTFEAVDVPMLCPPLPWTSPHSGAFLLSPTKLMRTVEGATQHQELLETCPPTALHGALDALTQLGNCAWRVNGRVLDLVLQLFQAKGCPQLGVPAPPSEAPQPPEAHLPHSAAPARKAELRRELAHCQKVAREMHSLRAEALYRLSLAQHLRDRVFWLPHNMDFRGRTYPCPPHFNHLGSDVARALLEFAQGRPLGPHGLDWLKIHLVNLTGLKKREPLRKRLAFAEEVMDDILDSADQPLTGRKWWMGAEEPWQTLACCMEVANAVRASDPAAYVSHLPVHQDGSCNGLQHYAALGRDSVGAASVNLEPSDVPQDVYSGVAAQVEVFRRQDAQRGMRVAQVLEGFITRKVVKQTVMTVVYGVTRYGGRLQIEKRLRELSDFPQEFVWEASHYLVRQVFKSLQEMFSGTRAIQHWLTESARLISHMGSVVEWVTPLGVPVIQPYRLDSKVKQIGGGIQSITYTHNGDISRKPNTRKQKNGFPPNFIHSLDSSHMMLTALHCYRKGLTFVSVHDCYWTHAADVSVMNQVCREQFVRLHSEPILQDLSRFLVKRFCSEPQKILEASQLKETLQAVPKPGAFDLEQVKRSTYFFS

T1: dihydrolipoyl transacetylase (DLAT) (human (endogenous in A549^cisR)) (UniProt P10515)
T1 sequence: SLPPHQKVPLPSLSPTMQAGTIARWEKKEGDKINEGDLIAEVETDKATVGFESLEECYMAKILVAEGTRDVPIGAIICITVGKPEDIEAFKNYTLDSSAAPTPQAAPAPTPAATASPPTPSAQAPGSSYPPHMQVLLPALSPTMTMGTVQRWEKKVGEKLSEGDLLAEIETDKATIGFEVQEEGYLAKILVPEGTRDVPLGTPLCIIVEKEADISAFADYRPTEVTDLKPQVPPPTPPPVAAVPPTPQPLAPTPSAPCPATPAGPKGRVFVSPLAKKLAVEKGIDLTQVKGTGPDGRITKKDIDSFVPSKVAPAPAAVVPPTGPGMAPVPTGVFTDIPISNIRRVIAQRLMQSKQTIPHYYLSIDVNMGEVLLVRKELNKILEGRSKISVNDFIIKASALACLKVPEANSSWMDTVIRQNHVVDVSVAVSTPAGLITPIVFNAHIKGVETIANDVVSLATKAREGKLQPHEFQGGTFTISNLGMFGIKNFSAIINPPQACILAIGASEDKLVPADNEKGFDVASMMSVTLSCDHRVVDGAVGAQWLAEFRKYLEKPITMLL

B1: methylenetetrahydrofolate dehydrogenase 2 (MTHFD2) (enzyme, UniProt P13995 36-350)
chain: EAVVISGRKLAQQIKQEVRQEVEEWVASGNKRPHLSVILVGENPASHSYVLNKTRAAAVVGINSETIMKPASISEEELLNLINKLNNDDNVDGLLVQLPLPEHIDERRICNAVSPDKDVDGFHVINVGRMCLDQYSMLPATPWGVWEIIKRTGIPTLGKNVVVAGRSKNVGMPIAMLLHTDGAHERPGGDATVTISHRYTPKEQLKKHTILADIVISAAGIPNLITADMIKEGAAVIDVGINRVHDPVTAKPKLVGDVDFEGVRQKAGYITPVPGGVGPMTVAMLMKNTIIAAKKVLRLEEREVLKSKELGVATN
B2: peroxiredoxin 3 (PRDX3) (enzyme, UniProt P30048 62-256)
chain: APAVTQHAPYFKGTAVVNGEFKDLSLDDFKGKYLVLFFYPLDFTFVCPTEIVAFSDKANEFHDVNCEVVAVSVDSHFSHLAWINTPRKNGGLGHMNIALLSDLTKQISRDYGVLLEGSGLALRGLFIIDPNGVIKHLSVNDLPVGRSVEETLRLVKAFQYVETHGEVCPANWTPDSPTIKPSPAASKEYFQKVNQ

These molecules were tested against T1, dihydrolipoyl transacetylase (DLAT) (human (endogenous in A549^cisR)) (assay: affinity purification with mass spectrometry; DLAT co-immunoprecipitation with anti-DLAT antibody and Protein G Sepharose from A549^cisR cells with or without DLAT knockdown; 1% NP-40 lysis buffer, 50 mM Tris-HCl pH 7.4, 150 mM NaCl, 4 °C; LC-MS/MS).

binding, binds:
RNA polymerase mitochondrial (POLRMT) (from UniProt O00411 42-1230) (enzyme)
B1
B2
